This passage reports binding results from publication PMC3630112.

For this test, the target named is Flag-tagged Dcp2 (HEK 293T) (mouse) (UniProt Q9CYC6). The experiment in a line: co-IP; GFP-tagged Dcp1a, HA-tagged CA or DN MAPKK1 and Flag-tagged Dcp2 co-expressed in HEK 293T cells, with or without U0126; IP with M2 beads; western blot with anti-GFP, anti-Flag, anti-Edc4. Background: A western blot detects proteins with antibodies after separation by electrophoresis.

These are yes or no findings as the source states them, for the method shown. In cells and extracts the contact can be indirect. Some entries that bind do so weakly or less than the wild type.

B1: endogenous Edc4 (HEK 293T cells) (protein, UniProt Q6P2E9 1-1401)
chain: MASCASIDIEDATQHLRDILKLDRPAGGPSAESPRPSSAYNGDLNGLLVPDPLCSGDSTSANKTGLRTMPPINLQEKQVICLSGDDSSTCIGILAKEVEIVASSDSSISSKARGSNKVKIQPVAKYDWEQKYYYGNLIAVSNSFLAYAIRAANNGSAMVRVISVSTSERTLLKGFTGSVADLAFAHLNSPQLACLDEAGNLFVWRLALVNGKIQEEILVHIRQPEGTPLNHFRRIIWCPFIPEESEDCCEESSPTVALLHEDRAEVWDLDMLRSSHSTWPVDVSQIKQGFIVVKGHSTCLSEGALSPDGTVLATASHDGYVKFWQIYIEGQDEPRCLHEWKPHDGRPLSCLLFCDNHKKQDPDVPFWRFLITGADQNRELKMWCTVSWTCLQTIRFSPDIFSSVSVPPSLKVCLDLSAEYLILSDVQRKVLYVMELLQNQEEGHACFSSISEFLLTHPVLSFGIQVVSRCRLRHTEVLPAEEENDSLGADGTHGAGAMESAAGVLIKLFCVHTKALQDVQIRFQPQLNPDVVAPLPTHTAHEDFTFGESRPELGSEGLGSAAHGSQPDLRRIVELPAPADFLSLSSETKPKLMTPDAFMTPSASLQQITASPSSSSSGSSSSSSSSSSSLTAVSAMSSTSAVDPSLTRPPEELTLSPKLQLDGSLTMSSSGSLQASPRGLLPGLLPAPADKLTPKGPGQVPTATSALSLELQEVEPLGLPQASPSRTRSPDVISSASTALSQDIPEIASEALSRGFGSSAPEGLEPDSMASAASALHLLSPRPRPGPELGPQLGLDGGPGDGDRHNTPSLLEAALTQEASTPDSQVWPTAPDITRETCSTLAESPRNGLQEKHKSLAFHRPPYHLLQQRDSQDASAEQSDHDDEVASLASASGGFGTKVPAPRLPAKDWKTKGSPRTSPKLKRKSKKDDGDAAMGSRLTEHQVAEPPEDWPALIWQQQRELAELRHSQEELLQRLCTQLEGLQSTVTGHVERALETRHEQEQRRLERALAEGQQRGGQLQEQLTQQLSQALSSAVAGRLERSIRDEIKKTVPPCVSRSLEPMAGQLSNSVATKLTAVEGSMKENISKLLKSKNLTDAIARAAADTLQGPMQAAYREAFQSVVLPAFEKSCQAMFQQINDSFRLGTQEYLQQLESHMKSRKAREQEAREPVLAQLRGLVSTLQSATEQMAATVAGSVRAEVQHQLHVAVGSLQESILAQVQRIVKGEVSVALKEQQAAVTSSIMQAMRSAAGTPVPSAHLDCQAQQAHILQLLQQGHLNQAFQQALTAADLNLVLYVCETVDPAQVFGQPPCPLSQPVLLSLIQQLASDLGTRTDLKLSYLEEAVMHLDHSDPITRDHMGSVMAQVRQKLFQFLQAEPHNSLGKAARRLSLMLHGLVTPSLP
With B1, the binding entry is given as “binds”.
